Screen size: about 400,000 compounds; about 13,000 (3.2%) were called active. The shares of active, inactive and inconclusive entries below differ from those in the screen. Calls follow the shape of the dose curve; as a rule, active = well fitted cell-killing curve with a large enough effect; inconclusive = small, poorly fitted or top-dose-only effect, or effect the other way; inactive = flat fitted curve, though single readings scatter. A potency beside an inconclusive call is a rough fit, not a confirmed value.
Assay: qHTS assay for MDR1-selective chemotherapeutics: Primary screen using the drug-selected MDR subline cells KB-V1; also: nearly all actives have a fitted effect of over 60% in size
Settings: KB-V1 MDR cells viability, CellTiter-Glo, 72 h; activity change, negative = cytotoxicity: at 46.1 µM (top of the series)
Method in brief: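 Luminescent ATP read-out (CellTiter-Glo, 10 min) measures survival of drug-selected KB-V1 MDR cells after 72 h, 37 degrees C compound exposure. Medium: phenol-red-free DMEM, 10% FBS. Values from fitted concentration-response curves.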
% is scaled to controls: 0 for no effect and ±100 for the full control effect; potency is read from the fitted curve at half-maximal effect.

Row | Structure (SMILES) | activity change, negative = cytotoxicity | Potency
1 | COc1ccc(C(=O)Nc2ccc3c(c2)OCCO3)c(OC)c1 | inactive: -22.7% | 
2 | CCN(CC(=O)Nc1cc(Cl)ccc1C)C(=O)c1cc([N+](=O)[O-])ccc1N1CCOCC1 |  | inconclusive: 18.4 µM [cytotoxic, single point]
3 | O=C(COC(=O)c1cc[n+]([O-])cc1)Nc1ccc(Br)cc1 |  | inconclusive: 29.1 µM [rising, single point]
4 | O=C(CNC(=O)c1ccc2c(c1)OCCO2)N=Nc1c(O)[nH]c2ccccc12 |  | inconclusive: 0.58 µM [rising, full curve, poor fit]
5 | O=c1[nH]ncn1-c1ccccc1 | inactive: 7.61% | 
6 | CCOc1cc(C2Sc3ccccc3NC3=C2C(=O)c2ccccc23)ccc1O (stereo unspecified) | inactive: -12.3% | 
7 | O=C(NCc1ccccc1)C(c1cccnc1)N(Cc1ccco1)C(=O)c1ccccn1 (stereo unspecified) | inactive: -2.78% | 
8 | CCOC(=O)[C@]12CCC=C1N(Cc1ccc(Cl)cc1Cl)C(=O)[C@H](CC(=O)NCc1ccc(OC)c(OC)c1)C2 |  | active: 5.17 µM
9 | CC1CCCCN1C(=O)CSc1nc(-c2ccccc2)cc(=O)[nH]1 (stereo unspecified) |  | inconclusive: 29.1 µM [cytotoxic, partial curve, poor fit]
10 | CCn1c(SCC(=O)Nc2ccc(C(C)=O)cc2)nc2c([nH]c3ccccc32)c1=O |  | inconclusive: 13 µM [cytotoxic, partial curve, poor fit]
11 | CCOC(=O)c1c[nH]c(=O)c(Br)c1O | inactive: -9.47% | 
12 | Cn1ccnc1SCC(=O)c1ccc(F)cc1 |  | inconclusive: 9.2 µM [rising, partial curve, poor fit]
13 | O=C(CNC(=O)C(c1ccccc1)c1ccccc1)N/N=C\c1ccc(C(=O)O)cc1 |  | inconclusive: 29.1 µM [rising, single point]
14 | CCOC(=O)c1cnc2ccc(Cl)cc2c1Nc1ccc(OCC)cc1 | inactive: -8.4% | 
15 | CCN(CC)C(=O)N1CCC(NC(=O)c2ccc(C(C)(C)C)cc2)CC1 | inactive: -27.8% | 
16 | CCCCOc1ccc(/C=C/C(=O)Nc2ccc([N+](=O)[O-])cc2C)cc1 | inactive: 14.8% | 
17 | Nc1ccc(CC(N)c2csc(Nc3cc(Oc4ccccc4)ncn3)n2)cc1 (stereo unspecified) | inactive: -4.15% | 
18 | COc1ccccc1N(C)S(=O)(=O)c1ccc(C)c(C(=O)Nc2nccs2)c1 |  | inconclusive: 9.2 µM [cytotoxic, partial curve]
19 | CCOC(=S)SCC(=O)Nc1nc(-c2ccccc2)cs1 |  | inconclusive: 29.1 µM [cytotoxic, single point]
20 | C=CCOc1cccc(C2C(C(=O)c3ccc(C)o3)=C(O)C(=O)N2CCCn2ccnc2)c1 (stereo unspecified) |  | inconclusive: 29.1 µM [rising, single point]
21 | CCOC(=O)C1CCN(C(=O)N2CCOCC2)CC1 |  | inconclusive: 29.1 µM [rising, partial curve, poor fit]
22 | COc1c(Cl)cc(Cl)cc1/C=N/NC(=O)c1nnn(-c2nonc2N)c1CN1CCC(C)CC1 |  | inconclusive: 32.6 µM [cytotoxic, single point]
23 | COc1ccc(/C=C/c2c(-c3ccc(OC)cc3)oc(=O)c3cc(OC)c(OC)cc23)cc1 | inactive: 4.98% | 

An excerpt from above in order of SMILES length, ascending:
Row | Structure (SMILES) | activity change, negative = cytotoxicity | Potency
17 | Nc1ccc(CC(N)c2csc(Nc3cc(Oc4ccccc4)ncn3)n2)cc1 (stereo unspecified) | inactive: -4.15% | 
13 | O=C(CNC(=O)C(c1ccccc1)c1ccccc1)N/N=C\c1ccc(C(=O)O)cc1 |  | inconclusive: 29.1 µM [rising, single point]
20 | C=CCOc1cccc(C2C(C(=O)c3ccc(C)o3)=C(O)C(=O)N2CCCn2ccnc2)c1 (stereo unspecified) |  | inconclusive: 29.1 µM [rising, single point]

Remaining list, next part.

Row | Structure (SMILES) | activity change, negative = cytotoxicity | Potency
24 | O=C(O)CC1C(=O)NCCN1Cc1cccs1 (stereo unspecified) |  | inconclusive: 23.1 µM [rising, single point]
25 | Cc1cc(Cl)ccc1N(CC(=O)N(C)Cc1ccccc1)S(C)(=O)=O |  | inconclusive: 20.6 µM [cytotoxic, single point]
26 | CCN(CC)S(=O)(=O)c1ccc(OC)c(NC(=O)CSc2cc(Cl)ccc2Cl)c1 |  | active: 13 µM
27 | Cc1nc(-n2nc(C)c(CCC(C)C)c2C)sc1C(=O)Nc1ccc(Br)cc1 | inactive: 10.8% | 
28 | COc1ccc(N(CC(=O)NCc2ccccc2)S(=O)(=O)c2c(C)noc2C)cc1 |  | inconclusive: 9.2 µM [cytotoxic, partial curve]
29 | CC(=O)c1ccc(NC(=O)CSc2nc(C3CCCC3)nc3c2c(=O)n(C)c(=O)n3C)cc1 | inactive: 7.74% | 
30 | COc1ccc(-n2ncc3c(SCC(=O)NNC(C)=O)ncnc32)cc1 |  | inconclusive: 29.1 µM [rising, single point]
31 | Cc1noc(C)c1COC(=O)c1cc(=O)[nH]c2ccccc12 |  | active: 5.8 µM
32 | COc1ccccc1NC(=O)CCN1CCCCCC1 | inactive: -0.258% | 
33 | CC1(C)CC(=O)C(C(=O)C2CCN(S(=O)(=O)c3ccccc3)CC2)C(=O)C1 |  | inconclusive: 23.1 µM [cytotoxic, single point]
34 | O=C1NN=C(c2ccc(Cl)cc2)CC1c1cccc(Br)c1 (stereo unspecified) |  | inconclusive: 29.1 µM [cytotoxic, single point]
35 | O=C(Nc1cccc(S(=O)(=O)NCc2ccco2)c1)c1cc(-c2ccccc2)nc2ccccc12 |  | inconclusive: 29.1 µM [cytotoxic, single point]
36 | COc1ccc(Cl)cc1C(=O)NNC(=O)c1n[nH]c2ccccc12 |  | inconclusive: 29.1 µM [rising, single point]
37 | O=C(N/N=C\C=C\c1ccc2c(c1)OCO2)C1COc2cc3ccccc3cc2O1 (stereo unspecified) |  | inconclusive: 29.1 µM [cytotoxic, single point]
38 | CCc1ccc2oc(C(=O)Nc3ccc(S(N)(=O)=O)cc3)c(C)c2c1 |  | inconclusive: 2.91 µM [rising, partial curve, poor fit]
39 | CCOC(=O)N1CCN(Cc2nnc(-c3cccc(Br)c3)o2)CC1 | inactive: 12.8% | 
40 | CC(C)Nc1ncnc2c1ncn2[C@H]1CN(C2CCCC2)C[C@@H](CO)O1 | inactive: 0.977% | 
41 | Cc1cc(C)c2sc(N3CCN(C(=O)C4CC4)CC3)nc2c1 | inactive: 3.39% | 
42 | CN(CC(=O)NC(=O)NC1CCCCC1)CC(=O)Nc1ccc(Cl)cc1 |  | inconclusive: 20.6 µM [cytotoxic, single point]
43 | O=C(NC1CCCCCC1)C1Cc2ccccc2CN1C(=O)c1ccco1 (stereo unspecified) |  | inconclusive: 23.1 µM [cytotoxic, single point]
44 | O=[N+]([O-])c1ccccc1S(=O)(=O)n1cnc2ccccc21 |  | inconclusive: 29.1 µM [rising, single point]
45 | O=C(NCCc1ccc(O)c(O)c1)C1COc2ccccc2O1 (stereo unspecified) | inactive: -1.23% | 
46 | CCOc1cccc(Nc2ccc([N+](=O)[O-])cn2)c1 |  | inconclusive: 20.6 µM [rising, partial curve]

Source: PubChem BioAssay AID1347076 (National Center for Advancing Translational Sciences (NCATS), 2019)
